PubChem BioAssay AID602196, INSERM – 2012

Aim: 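Knock-downs that protect lung cancer cells from cisplatin or sensitise them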
Cells: human A549 lung cancer cells
Reagents: siRNA pair against human genes
Time to read-out: 48 h transfection before cisplatin; time from cisplatin to read-out not stated
Conditions: cisplatin at a dose killing half of control-siRNA cells; exact dose and duration not given
Measurement: 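Shift in cisplatin death relative to control siRNA, from -50 (all cells die) to +50 (no cells die); siRNAs harmful on their own scored 0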
Reading the numbers: two-siRNA summed score (-2 to +2): higher = both siRNAs protect from cisplatin killing; -2 means both sensitise
Hit rule: 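Each siRNA scores 0 if harmful alone by LDH or WST-1, otherwise +1 if it reduces and -1 if it increases cisplatin killing; a gene is active when both siRNAs agree (sum +2 or -2)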
Calls: active = both siRNAs shift cisplatin killing the same way; inactive = no consistent shift, or siRNA harmful alone
The deposit covers about 23,000 reagents; shown is a part drawn at random. Of all reagents, 455 (2%) were called active. 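Active includes both protection and sensitisation; some change values fall well beyond the stated -50 to +50 range.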 Unmarked entries are inactive. Reagents against one gene are numbered here. Further read-outs or replicates are left out here. The record does not give: the amount of reagent.

two-siRNA summed score (-2 to +2), by gene knocked down and reagent
ZNF781: #1 0
MTG1: #1 0
PKHD1: #1 0
SMG5: #1 0
CIB3: #1 0
LRATD2: #1 0
ANO1: #1 0
LOC338825: #1 0
FAM168B: #1 0
LOC387887: #1 0
ADAMTS16: #1 0
LOC392726: #1 0
LOC401449: #1 0
APLNR: #1 0
POPDC1: #1 0
SAGE4P: #1 0
PTK2B: #1 0
TIFA: #1 0
LOC387721: #1 0
UPB1: #1 0
NHLH2: #1 0
BICD1: #1 0
LOC285110: #1 1
LOC441951: #1 0
NGRN: #1 0; #2 0
MB: #1 -1
HSP90AB1: #1 0
LOC388210 (retired record): #1 -1
LOC400712: #1 1
PPM1G: #1 1
TXNL4A: #1 -1
CLEC2B: #1 0
WDFY3-AS2: #1 0
SIGLEC11: #1 1
MDFIC: #1 0
PNMT: #1 -1
CALCB: #1 -1
FNBP1: #1 0

As entered above.
ZNF781, two-siRNA summed score (-2 to +2): 0
LOC392726, two-siRNA summed score (-2 to +2): 0
Under “two-siRNA summed score (-2 to +2)”, LOC401449 has 0
Under “two-siRNA summed score (-2 to +2)”, MTG1 shows 0
MDFIC, two-siRNA summed score (-2 to +2) = 0
For “two-siRNA summed score (-2 to +2)”, LOC441951 shows 0
